The source of these data is ChEMBL document CHEMBL5674883, “The Heterochromatin Landscape in Migrating Cells and the Importance of H3K27me3 for Associated Transcriptome Alterations” (Cells, 2018).

Chains of the proteins cited; added tags and fusions are not shown.
UniProt Q61188, whole entry: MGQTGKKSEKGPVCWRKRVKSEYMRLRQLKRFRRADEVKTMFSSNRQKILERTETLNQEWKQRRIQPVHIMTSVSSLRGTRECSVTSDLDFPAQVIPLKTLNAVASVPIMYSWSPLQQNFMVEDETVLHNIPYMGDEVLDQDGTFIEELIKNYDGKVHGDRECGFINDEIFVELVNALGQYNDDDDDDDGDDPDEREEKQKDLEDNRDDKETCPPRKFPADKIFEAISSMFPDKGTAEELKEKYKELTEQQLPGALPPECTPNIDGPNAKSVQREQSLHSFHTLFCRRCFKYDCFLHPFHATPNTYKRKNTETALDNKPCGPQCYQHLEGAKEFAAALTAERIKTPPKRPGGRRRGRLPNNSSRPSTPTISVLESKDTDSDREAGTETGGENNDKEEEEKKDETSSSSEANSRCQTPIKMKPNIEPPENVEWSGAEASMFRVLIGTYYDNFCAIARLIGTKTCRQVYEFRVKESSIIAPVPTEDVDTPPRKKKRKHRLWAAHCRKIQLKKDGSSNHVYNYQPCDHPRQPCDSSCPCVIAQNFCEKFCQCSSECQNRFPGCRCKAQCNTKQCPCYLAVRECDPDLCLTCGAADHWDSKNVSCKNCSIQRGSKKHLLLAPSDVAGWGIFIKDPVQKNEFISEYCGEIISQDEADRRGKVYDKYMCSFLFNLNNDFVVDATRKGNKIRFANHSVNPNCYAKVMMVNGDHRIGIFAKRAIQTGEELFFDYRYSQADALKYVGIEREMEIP

What all share (format): cell-based
Assay [1] concerns the target T1, RNA polymerase II (Mus musculus) (UniProt P08775+Q8CFI7+P97760+A0A3Q4L2S8+Q80UW8+P61219+P62488+Q923G2+P60898+O08740+Q63871+P62876). Briefly: Inhibition of RNA polymerase II in mouse B16-F1 migrating cells assessed as fold change in Hes6-RNA stability at 0.1 mM measured by ChIP-seq analysis relative to control cells.
In assay [2] the target is T1, RNA polymerase II (Mus musculus). As to the kind of experiment: Inhibition of RNA polymerase II in mouse B16-F1 migrating cells assessed as fold change in Ssna1-RNA stability at 0.1 mM measured by ChIP-seq analysis relative to control cells.
Assay [3] shares this target. As to the kind of experiment: Inhibition of RNA polymerase II in mouse B16-F1 migrating cells assessed as fold change in Abhd12-RNA stability at 0.1 mM measured by ChIP-seq analysis relative to control cells.
For assay [4] the target is unchanged. Briefly: Inhibition of RNA polymerase II in mouse B16-F1 migrating cells assessed as fold change in Cope-RNA stability at 0.1 mM measured by ChIP-seq analysis relative to control cells.
Assay [5] has the same target. As to the kind of experiment: Inhibition of RNA polymerase II in mouse B16-F1 migrating cells assessed as fold change in Chchd6-RNA stability at 0.1 mM measured by ChIP-seq analysis relative to control cells.
Assay [6] has the same target. Briefly: Inhibition of RNA polymerase II in mouse B16-F1 migrating cells assessed as fold change in Krtcap2-RNA stability at 0.1 mM measured by ChIP-seq analysis relative to control cells.
The target is the same in assay [7]. Briefly: Inhibition of RNA polymerase II in mouse B16-F1 migrating cells assessed as fold change in Gipc1-RNA stability at 0.1 mM measured by ChIP-seq analysis relative to control cells.
Assay [8] shares this target. As to the kind of experiment: Inhibition of RNA polymerase II in mouse B16-F1 migrating cells assessed as fold change in Maf1-RNA stability at 0.1 mM measured by ChIP-seq analysis relative to control cells.
The target is the same in assay [9]. Briefly: Inhibition of RNA polymerase II in mouse B16-F1 migrating cells assessed as fold change in Rad17-RNA stability at 0.1 mM measured by ChIP-seq analysis relative to control cells.
For assay [10] the target is unchanged. Briefly: Inhibition of RNA polymerase II in mouse B16-F1 migrating cells assessed as fold change in Pbrm1-RNA stability at 0.1 mM measured by ChIP-seq analysis relative to control cells.
Assay [11] shares this target. Briefly: Inhibition of RNA polymerase II in mouse B16-F1 migrating cells assessed as fold change in Ankrd13c-RNA stability at 0.1 mM measured by ChIP-seq analysis relative to control cells.
The target is the same in assay [12]. As to the kind of experiment: Inhibition of RNA polymerase II in mouse B16-F1 migrating cells assessed as fold change in Shcbp1-RNA stability at 0.1 mM measured by ChIP-seq analysis relative to control cells.
Assay [13] shares this target. As to the kind of experiment: Inhibition of RNA polymerase II in mouse B16-F1 migrating cells assessed as fold change in Usp45-RNA stability at 0.1 mM measured by ChIP-seq analysis relative to control cells.
Assay [14] has the same target. As to the kind of experiment: Inhibition of RNA polymerase II in mouse B16-F1 migrating cells assessed as fold change in Pdcd10-RNA stability at 0.1 mM measured by ChIP-seq analysis relative to control cells.
Assay [15] shares this target. As to the kind of experiment: Inhibition of RNA polymerase II in mouse B16-F1 migrating cells assessed as fold change in Senp6-RNA stability at 0.1 mM measured by ChIP-seq analysis relative to control cells.
Assay [16] shares this target. As to the kind of experiment: Inhibition of RNA polymerase II in mouse B16-F1 migrating cells assessed as fold change in Zbtb1-RNA stability at 0.1 mM measured by ChIP-seq analysis relative to control cells.
The target is the same in assay [17]. As to the kind of experiment: Inhibition of RNA polymerase II in mouse B16-F1 migrating cells assessed as fold change in Peli1-RNA stability at 0.1 mM measured by ChIP-seq analysis relative to control cells.
For assay [18] the target is unchanged. Briefly: Inhibition of RNA polymerase II in mouse B16-F1 migrating cells assessed as fold change in 9330182L06Rik-RNA stability at 0.1 mM measured by ChIP-seq analysis relative to control cells.
Assay [19] has the same target. Briefly: Inhibition of RNA polymerase II in mouse B16-F1 migrating cells assessed as fold change in Sp3-RNA stability at 0.1 mM measured by ChIP-seq analysis relative to control cells.
For assay [20] the target is unchanged. Briefly: Inhibition of RNA polymerase II in mouse B16-F1 migrating cells assessed as fold change in 4930430F08Rik-RNA stability at 0.1 mM measured by ChIP-seq analysis relative to control cells.
The target of assay [21] is Histone-lysine N-methyltransferase EZH2 (Mus musculus) (UniProt Q61188). As to the kind of experiment: Inhibition of EZH2 in mouse B16-F1 migrating cells assessed as fold change in H3K27me3-dependent regulated Thbs1-mRNA expression at 3 uM measured by ChIP-seq analysis relative to control cells.
Assay [22] has the same target. As to the kind of experiment: Inhibition of EZH2 in mouse B16-F1 migrating cells assessed as fold change in H3K27me3-independent regulated Celsr3-mRNA expression at 3 uM measured by ChIP-seq analysis relative to control cells.
For assay [23] the target is unchanged. Briefly: Inhibition of EZH2 in mouse B16-F1 migrating cells assessed as fold change in H3K27me3-independent regulated Ripor2-mRNA expression at 3 uM measured by ChIP-seq analysis relative to control cells.
Assay [24] has the same target. Briefly: Inhibition of EZH2 in mouse B16-F1 migrating cells assessed as fold change in H3K27me3-buffered regulated Bach2-mRNA expression at 3 uM measured by ChIP-seq analysis relative to control cells.
Assay [25] has the same target. Briefly: Inhibition of EZH2 in mouse B16-F1 migrating cells assessed as fold change in H3K27me3-buffered regulated Flvcr1-mRNA expression at 3 uM measured by ChIP-seq analysis relative to control cells.
The target is the same in assay [26]. Briefly: Inhibition of EZH2 in mouse B16-F1 migrating cells assessed as fold change in H3K27me3-buffered regulated Map3k12-mRNA expression at 3 uM measured by ChIP-seq analysis relative to control cells.
For assay [27] the target is unchanged. As to the kind of experiment: Inhibition of EZH2 in mouse B16-F1 migrating cells assessed as fold change in H3K27me3-buffered regulated Six5-mRNA expression at 3 uM measured by ChIP-seq analysis relative to control cells.
For assay [28] the target is unchanged. Briefly: Inhibition of EZH2 in mouse B16-F1 migrating cells assessed as fold change in H3K27me3-buffered regulated Zfas1-mRNA expression at 3 uM measured by ChIP-seq analysis relative to control cells.
The target is the same in assay [29]. As to the kind of experiment: Inhibition of EZH2 in mouse B16-F1 migrating cells assessed as fold change in H3K27me3-buffered regulated Adamts1-mRNA expression at 3 uM measured by ChIP-seq analysis relative to control cells.
Assay [30] shares this target. As to the kind of experiment: Inhibition of EZH2 in mouse B16-F1 migrating cells assessed as fold change in H3K27me3-buffered regulated Snora31-mRNA expression at 3 uM measured by ChIP-seq analysis relative to control cells.

Each structure is given as a SMILES string. Further values from the same series stand in other lists.

For the compound `OC[C@H]1O[C@@H](n2cnc3cc(Cl)c(Cl)cc32)[C@H](O)[C@@H]1O`, the log2FC was 0.56 in [1]; 0.49 in assay [2]; 0.49 in [3]; 0.46 in assay [4]; 0.45 in assay [5]; 0.44 in [6]. The log2FC in assay [7] is 0.43; in assay [8], 0.43; in [9] it was -0.47; in assay [10], -0.54; in assay [11] it was -0.55; in [12], -0.59. Further, the log2FC in assay [13] is -0.62; in assay [14], -0.64; in assay [15], -0.65; in [16], -0.67; in assay [17] it was -0.67; in assay [18], -0.68. Moreover, the values for the log2FC in [19] and in [20] were -0.77 and -0.97, respectively.
In the case of `CCCc1cc(C)[nH]c(=O)c1CNC(=O)c1cc(-c2ccnc(N3CCN(C)CC3)c2)cc2c1cnn2C(C)C`, the log2FC in [21] was 0.27; in assay [22], 1.17; in assay [23] it was -1.23; in assay [24] it was 0.62; in assay [25] it was 0.4; in assay [26] it was -0.49. Besides, the log2FC is -0.5 in [27], -0.62 in [28], -1.04 in assay [29] and -1.37 in assay [30].
